For assay [1], the target named is recombinant human galectin-1 (human) (UniProt P09382). In words: co-IP; galectin-1 knock-down cells (MDA-MB-231 and Hs578T, Gal-1 sh1 and sh2) treated with recombinant human galectin-1 (300 ng/ml) for 48 h; lysates immunoprecipitated with anti-galectin-1 antibody, western blot with anti-integrin β1 antibody; only the target purified. A general note: Immunoblotting shows a protein as a band on a membrane.

By UniProt entry, the sequences of proteins in these tests, tags left out. Where a name states a change or a piece, a line headed by the entry shows the natural chain unless it says otherwise.
UniProt P05556: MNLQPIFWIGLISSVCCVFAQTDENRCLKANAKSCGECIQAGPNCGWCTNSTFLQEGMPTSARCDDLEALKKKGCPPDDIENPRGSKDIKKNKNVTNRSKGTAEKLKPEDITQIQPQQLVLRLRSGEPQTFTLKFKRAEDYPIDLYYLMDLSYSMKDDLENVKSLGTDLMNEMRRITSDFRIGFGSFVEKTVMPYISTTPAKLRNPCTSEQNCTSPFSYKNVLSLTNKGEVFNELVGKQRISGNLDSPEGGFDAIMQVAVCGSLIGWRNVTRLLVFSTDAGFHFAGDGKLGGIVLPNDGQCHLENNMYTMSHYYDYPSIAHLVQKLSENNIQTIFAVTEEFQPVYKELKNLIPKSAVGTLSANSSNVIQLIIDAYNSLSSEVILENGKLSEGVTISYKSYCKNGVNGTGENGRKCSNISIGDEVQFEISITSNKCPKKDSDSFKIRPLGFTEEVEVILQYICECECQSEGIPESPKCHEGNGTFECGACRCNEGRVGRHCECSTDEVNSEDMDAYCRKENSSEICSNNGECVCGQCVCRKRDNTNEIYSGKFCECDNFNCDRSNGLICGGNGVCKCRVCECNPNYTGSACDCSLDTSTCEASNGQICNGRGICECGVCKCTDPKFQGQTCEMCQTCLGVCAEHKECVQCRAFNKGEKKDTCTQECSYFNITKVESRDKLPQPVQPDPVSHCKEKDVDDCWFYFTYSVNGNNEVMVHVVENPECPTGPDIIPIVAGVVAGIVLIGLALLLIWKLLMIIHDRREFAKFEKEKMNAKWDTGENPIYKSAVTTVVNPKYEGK

The target in assay [2] is galectin-1 (human (endogenous in MDA-MB-231 and Hs578T)) (UniProt P09382). In words: cross-linking + co-IP; cells incubated with 1 mM BS3 for 20 min to cross-link galectin-1 to cell surface proteins; lysates immunoprecipitated with anti-galectin-1 antibody, western blot with anti-integrin β1 antibody; MDA-MB-231 and Hs578T control shRNA and galectin-1 shRNA cells; also control cells treated beforehand with anti-galectin-1 antibodies (2 μg/ml, 48 h).

These are yes or no findings as the source states them, for the method shown. Binding seen in cells or lysates may run through a third protein. Some entries that bind do so weakly or less than the wild type.

As for “integrin β1 (from UniProt P05556 21-798) (receptor)”, the binding result in assay [1] and in assay [2] was “binds” in each case.

The record behind these values is publication PMC5482619.
